Assay results: PubChem BioAssay AID1508644 (National Center for Advancing Translational Sciences (NCATS), 2021)
The shares of active, inactive and inconclusive entries below differ from those in the screen. Where the call is inconclusive, the potency comes from a doubtful curve fit. Activity calls are given as the source filed them. Calls follow the shape of the dose curve; as a rule, active = well fitted inhibition curve with a large enough effect; inconclusive = small, poorly fitted or top-dose-only effect; inactive = no such curve, though single readings can be large or run the other way.

Sequences of proteins named here, by UniProt entry; tags and fusion partners are left off. A change or cut given only in a name is not applied to a line headed by its entry.
UniProt P25094: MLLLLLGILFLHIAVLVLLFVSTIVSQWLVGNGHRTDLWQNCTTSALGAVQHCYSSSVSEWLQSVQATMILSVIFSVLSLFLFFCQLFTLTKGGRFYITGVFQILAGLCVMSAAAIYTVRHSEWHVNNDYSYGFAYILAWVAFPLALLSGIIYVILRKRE

target: Peripheral myelin protein 22 (Rattus norvegicus) (UniProt P25094); assay: Cell-based HiBiT reporter assay to measure PMP22 protein expression in S16 Pmp22-HiBiT cells; conditions: S16 Schwann Pmp22-HiBiT, NanoGlo luminescence, 48 h; activity change, negative = inhibition: at 27.9 µM (top of the series)
Source text: Assay Provider: Jim Inglese Ph.D. National Center for Advancing Translational Science, National Institutes of Health, Rockville, MD CMT is a heterogeneous group of neurological disorders that affect approximately 1 in 2,500 people. In particular, the most common form of CMT, CMT1A is genetically linked to the duplication of the PMP22 gene which leads to Schwann cell overexpression, thus manifesting itself as a typical case of dose-sensitive diseases. To identify small molecule compounds that can mediate the expression of PMP22 we developed a phenotypic assay screening strategy by utilizing genome editing techniques to construct Schwann cell lines containing novel reporter technology to monitor the transcriptional or translational regulation of PMP22. For high sensitivity we use a bioluminescent reporter system embedded in the 3' UTR of the PMP22 gene (S16(c9) Pmp22-F2sN) to identify compounds that inhibit gene expression. […] We can further discriminate the effect of all transcriptionally active molecules on PMP22 translation or stability with an assay that incorporates a short NLuc peptide (HiBiT) at the C-terminus of expressed PMP22 (S16(f8) PMP22-HiBiT) allowing alpha complementation and luminescence detection of membrane-associated PMP22 protein. These assays were screened against the NCATS Sytravon Library Collection. Miniaturization of these assays to 1536-well plate format for quantitative high throughput screening (qHTS) yielded rich data sets immediately from the qHTS assay (S16(c9) Pmp22-F2sN), when compared with data from a cell viability assay (Cell TiterGlo) to identify compounds that decreased the output signals through cellular toxicity to streamline the selection process of actives for subsequent characterization using the HiBiT assay (S16(f8) PMP22-HiBiT).
Cell-based HiBiT reporter assay in S16 Pmp22-HiBiT cells PROTOCOL TABLE (format as described by Inglese J, Shamu CE and Guy RK. 2007) SEQUENCE No. (e.g., 1, 2, 3, etc.); PARAMETER (e.g., Cells, Incubation, Reagent, etc.); VALUE and DESCRIPTION. 1. Cells. Add 1,500 cells in 5 uL in growth media (DMEM High Glucose, No Phenol Red media + 10% heat-inactivated FBS + 1% Pen/Strep supplemented media) per well into Greiner 1536-well white/solid bottom high base, TC-treated plates. 2. Compounds. Library compounds and controls added at 23nL per well, transferred by Pin Tool. 3. Incubation. Incubate plates at 37C, 5% CO2, 95% RH for 48 h. 4. Media removal. Invert and centrifuge plates. 5. Reagent. Add 3uL NanoGlo HiBiT Lytic Detection Reagent per well of Greiner 1536-well plates. 6. Incubation. Incubate plates at room temperature for 15 min., protect from light. 7. Detector. NLuc luminescence measured using CCD-based camera (Viewlux). NOTES (numbers refer to Sequence numbers above; values are from representative experiments) 7. Luminescence Read: Clear filter; Exposure = 10 sec, Gain = High, Speed = Slow, Binning = 2X REFERENCES: 1. Inglese J, Shamu CE and Guy RK, Reporting data from high throughput screening of small molecule libraries, Nature Chemical Biology, 2007, 3(8): 438-441. doi.org/10.1038/nchembio0807-438 2. Yasgar A, Shinn P, Jadhav A, Auld DS, Michael S, Zheng W, Austin CP, Inglese J and Simeonov A, Compound Management for Quantitative High-Throughput Screening. J. Assoc. Lab. Auto., 2008, 13: 79-89. doi: 10.1016/j.jala.2007.12.004

Potency, inconclusive:
Cc1ccc(CNC(=O)c2ccc(Cn3c(=O)c4ccccc4n(CC(=O)Nc4c(C)cc(C)cc4C)c3=O)cc2)cc1 12.9 µM [inhibitor, partial curve, poor fit], COC(=O)c1c(-c2ccc(Cl)cc2)noc1N1CCN(c2cccc(C(F)(F)F)c2)CC1 5.75 µM [inhibitor, partial curve], O=C(CSc1nc2c([nH]c3ccccc32)c(=O)n1-c1cccc(Cl)c1)c1ccccc1 16.2 µM [inhibitor, partial curve, poor fit], CCC(C)NC(=O)C1CCN(C(=O)c2cc3sccc3n2Cc2ccc(Cl)cc2)CC1 (centres undefined) 1.62 µM [inhibitor, full curve], COc1ccc(OC)c(NC(=O)CSc2c3c(nc4ccccc24)CCCC3)c1 5.75 µM [inhibitor, partial curve], CCOCCCNC(=O)c1ccc(-n2c(-c3ccccc3)cc3c2CCC(C)C3)cc1 (centres undefined) 3.63 µM [inhibitor, full curve], O=C(CCS(=O)(=O)c1nc(-c2cccs2)cc(C(F)(F)F)n1)Nc1ccc(Br)cc1 5.75 µM [inhibitor, full curve], CCOC(=O)c1ccc(N2C(=O)c3[nH]nc(-c4ccc(C)cc4)c3C2c2ccc(O)c(OCC)c2)cc1 (centres undefined) 5.75 µM [inhibitor, partial curve], COc1ccc(NC(=O)CCS(=O)(=O)c2nc(-c3cccs3)cc(C(F)(F)F)n2)cc1 7.24 µM [inhibitor, single point]

Potency, active:
COCCCNC(=O)c1ccc(-n2c(-c3ccccc3)cc3c2CCC(C)C3)cc1 (centres undefined) 5.75 µM, CCOC(=O)c1c(NC(=O)c2nc(S(C)(=O)=O)ncc2Cl)sc(C(C)=O)c1C 3.24 µM

Activity change, negative = inhibition, inactive:
Cc1cccc(N2CCN(C(=O)C3CCCN(S(=O)(=O)c4ccc5c(c4)oc(=O)n5C)C3)CC2)c1C (centres undefined) 56.1%, O=C(NCCCN1CCN(c2ccc(F)cc2)CC1)c1cc2c(Cl)nc3ccccc3c2s1 -1.33%, CCc1ccc(OCC(=O)Nc2cc3oc4ccccc4c3cc2OC)cc1 2.28%
